{
  "source": "patent US20100028296A1",
  "about": "“Use of cytokine-derived peptides in treatment of pain and neurodegenerative disease” (priority 2005, published 2010)",
  "origin": "cited, not measured here",
  "test_system": "neuropathic pain",
  "conditions": "in vivo",
  "note": "For at least one compound, name, drawing or mass did not settle the structure.",
  "data": [
    {"compound": "CN(C)c1ccc(O)c2c1C[C@H]1C[C@H]3[C@H](N(C)C)C(O)=C(C(N)=O)C(=O)[C@@]3(O)C(O)=C1C2=O", "note": "[Minocycline]", "values": [
      {"measurement": "blocking induction of neuropathic pain", "result": "effective"},
      {"measurement": "reversing established neuropathic pain", "result": "not in reversing established neuropathic pain"}
    ]}
  ]
}
